{"sequences": {"note": "Chains of the proteins cited; added tags and fusions are not shown. Residues count along the entry.", "UniProt P20152": "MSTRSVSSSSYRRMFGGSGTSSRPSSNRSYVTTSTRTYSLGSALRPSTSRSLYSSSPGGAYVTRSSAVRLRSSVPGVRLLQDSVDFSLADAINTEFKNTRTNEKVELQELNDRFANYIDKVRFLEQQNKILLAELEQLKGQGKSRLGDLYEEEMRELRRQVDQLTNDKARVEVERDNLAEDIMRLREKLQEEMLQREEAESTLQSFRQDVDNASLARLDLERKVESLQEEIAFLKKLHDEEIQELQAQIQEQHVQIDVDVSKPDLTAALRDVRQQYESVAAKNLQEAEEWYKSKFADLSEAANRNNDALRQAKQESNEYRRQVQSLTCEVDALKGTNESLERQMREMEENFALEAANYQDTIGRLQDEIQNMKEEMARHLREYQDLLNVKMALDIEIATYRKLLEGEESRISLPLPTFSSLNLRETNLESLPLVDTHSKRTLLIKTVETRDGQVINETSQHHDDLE", "UniProt Q888Y7, residues 1-90": "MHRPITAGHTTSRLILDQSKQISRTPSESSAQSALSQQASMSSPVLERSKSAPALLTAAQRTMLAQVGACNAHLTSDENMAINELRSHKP"}, "source": "paper PMC7156461", "target": "vimentin (mouse (endogenous in B16F10)) (UniProt P20152)", "assay": "co-IP; whole-cell lysates of transfected B16F10 cells, IP with anti-Vimentin antibody on magnetic beads, immunoblot with anti-Myc, anti-14-3-3 or anti-p62; in one panel the cells were treated with R18 at 10 μM and 25 μM for 12 h", "note": "Results are given in words; binding and its absence hold for the method and conditions named. In cells and extracts the contact can be indirect.", "data": [{"substance": "Myc-HopQ N90, containing only an N-terminal 90 amino-acid region (from UniProt Q888Y7 1-90) (domain or fragment)", "values": [{"measurement": "binding", "value": "no binding"}]}]}
